Our source for the log2 fold change values is the supplement of paper PMC10849652.

Protein sequences, listed by entry. Tags and fused reporters are not part of them. Lines headed by an entry give the natural chain unless they say otherwise; changes in a name come on top.
UniProt O00161: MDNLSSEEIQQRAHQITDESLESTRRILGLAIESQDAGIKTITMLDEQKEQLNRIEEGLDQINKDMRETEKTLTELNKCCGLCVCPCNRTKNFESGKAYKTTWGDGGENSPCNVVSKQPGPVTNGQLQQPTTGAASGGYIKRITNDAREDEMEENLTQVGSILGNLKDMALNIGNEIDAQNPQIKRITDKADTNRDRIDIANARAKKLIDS
UniProt O95721: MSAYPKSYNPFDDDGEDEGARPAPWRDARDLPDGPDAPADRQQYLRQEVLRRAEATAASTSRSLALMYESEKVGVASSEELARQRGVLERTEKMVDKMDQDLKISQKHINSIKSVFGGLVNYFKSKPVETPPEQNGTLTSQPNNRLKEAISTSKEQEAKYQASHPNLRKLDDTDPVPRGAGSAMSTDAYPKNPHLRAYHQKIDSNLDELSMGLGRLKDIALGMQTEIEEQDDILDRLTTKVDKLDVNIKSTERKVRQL
UniProt Q8IYB5: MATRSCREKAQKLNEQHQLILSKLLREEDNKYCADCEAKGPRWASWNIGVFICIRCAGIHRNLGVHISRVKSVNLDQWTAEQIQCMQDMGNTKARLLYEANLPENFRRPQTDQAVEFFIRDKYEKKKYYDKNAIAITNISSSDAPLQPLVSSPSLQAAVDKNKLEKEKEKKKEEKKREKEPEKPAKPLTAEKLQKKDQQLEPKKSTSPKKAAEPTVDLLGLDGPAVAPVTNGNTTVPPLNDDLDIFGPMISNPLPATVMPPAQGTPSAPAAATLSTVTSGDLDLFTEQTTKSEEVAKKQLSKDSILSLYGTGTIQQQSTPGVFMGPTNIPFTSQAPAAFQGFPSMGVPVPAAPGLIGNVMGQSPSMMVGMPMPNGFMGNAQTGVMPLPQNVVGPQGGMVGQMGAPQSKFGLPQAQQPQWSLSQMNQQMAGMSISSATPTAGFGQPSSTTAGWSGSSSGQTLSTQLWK
UniProt O75643, whole entry, looked up: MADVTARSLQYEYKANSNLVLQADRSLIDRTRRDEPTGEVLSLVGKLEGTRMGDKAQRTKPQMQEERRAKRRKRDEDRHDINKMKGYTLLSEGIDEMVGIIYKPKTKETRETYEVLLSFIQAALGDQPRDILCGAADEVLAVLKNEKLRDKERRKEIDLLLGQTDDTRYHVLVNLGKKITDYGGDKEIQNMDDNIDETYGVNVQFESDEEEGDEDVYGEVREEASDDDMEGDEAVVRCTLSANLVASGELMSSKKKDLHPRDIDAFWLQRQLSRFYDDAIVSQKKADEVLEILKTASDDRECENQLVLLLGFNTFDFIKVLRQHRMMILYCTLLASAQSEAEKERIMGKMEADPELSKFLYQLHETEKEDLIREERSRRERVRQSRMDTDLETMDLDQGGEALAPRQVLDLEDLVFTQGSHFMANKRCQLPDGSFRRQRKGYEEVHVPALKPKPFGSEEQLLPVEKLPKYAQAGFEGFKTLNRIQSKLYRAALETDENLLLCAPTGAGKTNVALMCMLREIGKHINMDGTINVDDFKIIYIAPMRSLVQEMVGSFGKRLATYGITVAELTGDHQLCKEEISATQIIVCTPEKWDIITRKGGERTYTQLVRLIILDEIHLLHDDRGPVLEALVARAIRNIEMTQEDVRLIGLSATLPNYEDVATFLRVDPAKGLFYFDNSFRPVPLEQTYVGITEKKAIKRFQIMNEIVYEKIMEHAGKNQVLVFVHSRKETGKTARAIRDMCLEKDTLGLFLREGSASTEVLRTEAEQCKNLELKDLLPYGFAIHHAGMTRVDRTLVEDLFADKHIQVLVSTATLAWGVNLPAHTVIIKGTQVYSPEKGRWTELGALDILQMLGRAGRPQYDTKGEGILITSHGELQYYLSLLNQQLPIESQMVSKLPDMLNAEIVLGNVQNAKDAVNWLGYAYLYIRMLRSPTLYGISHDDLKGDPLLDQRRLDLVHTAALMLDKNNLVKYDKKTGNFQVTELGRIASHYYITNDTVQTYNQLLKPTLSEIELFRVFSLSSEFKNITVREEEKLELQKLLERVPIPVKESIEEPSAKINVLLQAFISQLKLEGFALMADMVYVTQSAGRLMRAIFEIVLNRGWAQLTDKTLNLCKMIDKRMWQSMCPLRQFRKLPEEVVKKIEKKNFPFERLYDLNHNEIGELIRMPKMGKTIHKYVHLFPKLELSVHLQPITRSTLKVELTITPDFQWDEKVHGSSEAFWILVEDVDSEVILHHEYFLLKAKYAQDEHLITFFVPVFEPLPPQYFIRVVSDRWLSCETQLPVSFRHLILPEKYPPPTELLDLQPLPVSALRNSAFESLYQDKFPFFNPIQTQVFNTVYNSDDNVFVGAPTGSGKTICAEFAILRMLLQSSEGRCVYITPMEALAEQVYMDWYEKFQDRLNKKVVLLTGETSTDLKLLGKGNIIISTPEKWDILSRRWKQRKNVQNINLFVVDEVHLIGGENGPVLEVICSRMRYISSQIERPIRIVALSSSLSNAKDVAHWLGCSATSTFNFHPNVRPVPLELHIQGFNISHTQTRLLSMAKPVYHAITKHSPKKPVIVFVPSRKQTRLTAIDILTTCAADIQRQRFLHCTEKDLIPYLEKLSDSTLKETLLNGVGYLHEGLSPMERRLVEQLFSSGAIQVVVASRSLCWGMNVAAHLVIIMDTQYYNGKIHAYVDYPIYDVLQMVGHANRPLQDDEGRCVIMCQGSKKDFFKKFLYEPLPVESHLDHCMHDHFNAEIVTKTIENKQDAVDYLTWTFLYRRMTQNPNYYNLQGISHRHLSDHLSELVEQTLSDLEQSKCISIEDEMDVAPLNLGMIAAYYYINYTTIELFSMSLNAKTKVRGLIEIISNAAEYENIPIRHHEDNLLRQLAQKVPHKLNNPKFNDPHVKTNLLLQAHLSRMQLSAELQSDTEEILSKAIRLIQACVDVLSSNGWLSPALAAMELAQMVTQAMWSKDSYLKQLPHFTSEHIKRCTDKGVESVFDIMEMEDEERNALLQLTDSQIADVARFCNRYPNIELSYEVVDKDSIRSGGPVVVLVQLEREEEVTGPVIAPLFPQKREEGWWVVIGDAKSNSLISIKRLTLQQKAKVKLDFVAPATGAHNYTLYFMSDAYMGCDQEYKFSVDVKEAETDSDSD
UniProt O60906: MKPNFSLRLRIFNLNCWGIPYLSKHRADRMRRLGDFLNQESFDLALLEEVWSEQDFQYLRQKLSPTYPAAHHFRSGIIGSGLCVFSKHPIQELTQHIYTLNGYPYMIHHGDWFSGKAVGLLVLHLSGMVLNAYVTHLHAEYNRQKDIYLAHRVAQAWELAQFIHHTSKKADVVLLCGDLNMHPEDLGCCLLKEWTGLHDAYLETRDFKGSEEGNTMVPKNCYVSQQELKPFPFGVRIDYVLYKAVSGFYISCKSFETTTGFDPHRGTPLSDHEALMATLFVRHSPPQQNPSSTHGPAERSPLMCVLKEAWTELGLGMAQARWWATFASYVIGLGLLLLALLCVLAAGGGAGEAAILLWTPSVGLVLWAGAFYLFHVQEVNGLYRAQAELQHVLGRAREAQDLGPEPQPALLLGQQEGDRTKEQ
UniProt Q15599: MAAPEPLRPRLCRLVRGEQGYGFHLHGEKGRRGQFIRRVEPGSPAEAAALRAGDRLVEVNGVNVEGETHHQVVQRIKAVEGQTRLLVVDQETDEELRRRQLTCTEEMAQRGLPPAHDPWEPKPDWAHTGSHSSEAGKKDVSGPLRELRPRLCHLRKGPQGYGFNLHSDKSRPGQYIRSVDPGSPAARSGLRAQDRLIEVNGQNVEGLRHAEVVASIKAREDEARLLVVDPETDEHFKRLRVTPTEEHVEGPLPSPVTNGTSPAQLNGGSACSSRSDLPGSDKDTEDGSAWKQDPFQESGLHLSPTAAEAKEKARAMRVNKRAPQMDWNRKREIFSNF
UniProt Q96EX1: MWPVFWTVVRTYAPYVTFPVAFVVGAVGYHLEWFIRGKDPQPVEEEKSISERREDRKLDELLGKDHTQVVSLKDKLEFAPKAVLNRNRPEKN
UniProt P00441, whole entry, looked up: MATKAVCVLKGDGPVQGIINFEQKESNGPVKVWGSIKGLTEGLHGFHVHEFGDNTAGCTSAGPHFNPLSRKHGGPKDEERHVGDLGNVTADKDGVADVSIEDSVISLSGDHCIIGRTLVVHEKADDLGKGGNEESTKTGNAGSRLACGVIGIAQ
UniProt Q15036: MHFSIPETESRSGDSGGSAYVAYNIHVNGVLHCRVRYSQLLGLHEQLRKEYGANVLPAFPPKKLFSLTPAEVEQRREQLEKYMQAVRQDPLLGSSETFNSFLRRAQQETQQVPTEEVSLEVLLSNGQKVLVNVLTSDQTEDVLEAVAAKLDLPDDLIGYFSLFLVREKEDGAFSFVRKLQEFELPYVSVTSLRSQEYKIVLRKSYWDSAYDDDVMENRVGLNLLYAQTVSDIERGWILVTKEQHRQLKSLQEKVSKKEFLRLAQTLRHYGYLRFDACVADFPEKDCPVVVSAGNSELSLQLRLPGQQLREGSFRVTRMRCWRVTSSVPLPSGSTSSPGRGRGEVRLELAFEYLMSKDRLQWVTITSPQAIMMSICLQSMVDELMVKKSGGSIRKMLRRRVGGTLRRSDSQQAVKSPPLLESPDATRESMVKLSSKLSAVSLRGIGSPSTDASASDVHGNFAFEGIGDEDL
UniProt O14508, whole entry, looked up: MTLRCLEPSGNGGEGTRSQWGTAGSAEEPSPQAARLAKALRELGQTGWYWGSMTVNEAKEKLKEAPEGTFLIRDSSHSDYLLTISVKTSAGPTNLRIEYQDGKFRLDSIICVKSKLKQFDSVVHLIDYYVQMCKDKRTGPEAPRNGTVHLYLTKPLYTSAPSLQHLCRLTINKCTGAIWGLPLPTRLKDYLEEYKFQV
UniProt Q00796: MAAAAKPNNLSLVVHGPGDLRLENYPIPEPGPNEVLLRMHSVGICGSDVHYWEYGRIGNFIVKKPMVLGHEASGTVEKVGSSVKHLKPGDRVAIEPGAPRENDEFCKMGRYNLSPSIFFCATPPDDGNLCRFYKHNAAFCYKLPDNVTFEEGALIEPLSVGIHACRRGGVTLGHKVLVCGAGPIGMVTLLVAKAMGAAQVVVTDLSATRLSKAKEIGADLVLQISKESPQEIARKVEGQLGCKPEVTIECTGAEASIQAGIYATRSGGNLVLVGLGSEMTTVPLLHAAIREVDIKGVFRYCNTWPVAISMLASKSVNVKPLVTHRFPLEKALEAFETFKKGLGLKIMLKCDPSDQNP
UniProt Q8NDV3: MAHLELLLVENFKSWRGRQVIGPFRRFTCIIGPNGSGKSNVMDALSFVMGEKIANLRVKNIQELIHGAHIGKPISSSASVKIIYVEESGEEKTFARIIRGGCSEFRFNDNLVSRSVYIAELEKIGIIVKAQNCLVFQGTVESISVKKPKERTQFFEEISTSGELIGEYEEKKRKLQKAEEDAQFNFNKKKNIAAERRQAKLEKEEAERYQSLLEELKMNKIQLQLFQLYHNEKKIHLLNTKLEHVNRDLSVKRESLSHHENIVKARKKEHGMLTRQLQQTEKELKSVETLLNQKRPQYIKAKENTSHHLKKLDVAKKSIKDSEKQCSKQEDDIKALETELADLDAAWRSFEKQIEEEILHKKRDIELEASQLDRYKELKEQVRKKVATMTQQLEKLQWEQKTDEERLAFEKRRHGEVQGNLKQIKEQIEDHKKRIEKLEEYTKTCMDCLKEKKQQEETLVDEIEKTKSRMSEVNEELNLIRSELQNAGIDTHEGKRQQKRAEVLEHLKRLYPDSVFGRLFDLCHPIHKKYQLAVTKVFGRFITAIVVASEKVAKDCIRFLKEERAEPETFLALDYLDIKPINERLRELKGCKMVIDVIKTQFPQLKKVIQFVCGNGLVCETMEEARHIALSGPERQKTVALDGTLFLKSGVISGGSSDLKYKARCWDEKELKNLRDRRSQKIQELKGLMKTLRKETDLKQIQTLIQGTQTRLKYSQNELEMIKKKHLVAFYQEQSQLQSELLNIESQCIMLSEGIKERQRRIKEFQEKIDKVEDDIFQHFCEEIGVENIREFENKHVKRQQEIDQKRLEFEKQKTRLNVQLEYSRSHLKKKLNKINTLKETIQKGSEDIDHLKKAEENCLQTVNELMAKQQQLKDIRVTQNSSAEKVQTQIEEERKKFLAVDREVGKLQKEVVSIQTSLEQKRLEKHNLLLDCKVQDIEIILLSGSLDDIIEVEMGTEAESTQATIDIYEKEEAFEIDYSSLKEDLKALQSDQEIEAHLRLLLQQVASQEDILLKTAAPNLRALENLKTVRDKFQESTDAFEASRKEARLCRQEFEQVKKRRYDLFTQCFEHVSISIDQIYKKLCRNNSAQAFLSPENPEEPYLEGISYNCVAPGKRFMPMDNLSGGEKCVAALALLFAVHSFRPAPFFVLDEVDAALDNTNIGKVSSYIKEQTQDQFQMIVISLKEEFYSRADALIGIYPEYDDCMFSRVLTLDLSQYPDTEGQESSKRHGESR

The list shows a part of the results.

Compound in this assay: CN(CCOC1=CC=C(C=C1)C[C@H]2C(=O)NC(=O)S2)C3=CC=CC=N3 (racemic) [rosiglitazone]
The experiment in a line: log2 fold change, soluble protein after heating vs DMSO (PISA); higher = thermal stabilisation; K562 cells, 10 uM, 30 min; active = over 0.2 and 3.5 SD of the protein, either way, in both replicates (recomputed). The essentials: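 Quantification of soluble protein used TMTpro 16plex LC-MS/MS, with channel sums equalised. Samples were the supernatant after 21,000xg for 90 min of pooled aliquots from K562 cells (2×10^6 cells/mL) treated with 10 μM compound for 30 min, heated for 3 min over 48°C-58°C, and extracted in PBS with 0.5% NP-40 at 4°C. Values, from duplicates, describe thermal stability against control samples on a log2 fold-change scale.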
With SLMAP (UniProt Q14BN4), the log2 fold change was inactive: -0.05. With SNAP23 (UniProt O00161) the figure was inactive: 0.002; with SNAP29 (UniProt O95721), inactive: 0.003. With SMYD5 (UniProt Q6GMV2) the figure was inactive: -0.017. With SMAP1 isoform 2 (UniProt Q8IYB5) the figure was inactive: 0.083; with SNRNP200 (UniProt O75643), inactive: 0.001; with SMPD2 (UniProt O60906), inactive: 0.075. Regarding SPAG5 (UniProt Q96R06), the log2 fold change was inactive: -0.036. Regarding SLC9A3R2 (UniProt Q15599), the log2 fold change was inactive: 0.006. With SLC9A1 (UniProt P19634) the figure was inactive: -0.011; with SNCA (UniProt P37840), inactive: -0.019. With SMIM12 (UniProt Q96EX1) the figure was inactive: -0.024.

Turning to SNRPC (UniProt Q5TAL2), the log2 fold change is inactive: 0.016. With SOD1 (UniProt P00441) the figure was inactive: 0.049. Regarding SLC9A3R1 (UniProt O14745), the log2 fold change was inactive: 0.001. With SMG7 isoform 4 (UniProt Q92540) the figure was inactive: 0.089; with SMU1 (UniProt Q2TAY7), inactive: 0.02.

SMC1A (UniProt Q14683): the log2 fold change is inactive: -0.009. With SNX17 (UniProt Q15036) the figure was inactive: 0.008. With SMARCC2 (UniProt Q8TAQ2) the figure was inactive: 0.061. With SOCS2 (UniProt O14508) the figure was inactive: 0.003. Consider SORD (UniProt Q00796), for which the log2 fold change is inactive: 0.014. With SMC1B isoform 3 (UniProt Q8NDV3) the figure was inactive: -0.227.
